In the supplement of paper PMC12823440, “Inhibitors supercharge kinase turnover through native proteolytic circuits” (Nature, 2025):
Structures can show the parent of a compound that is named as a salt. The list shows a part of the results. The calls rarely recur for the same compound in another form.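 In K562 cells expressing nanoluciferase-fused kinases, luminescence was recorded at 4 h intervals between 2 and 18 h, normalized as percent of control with DMSO at 100% and a positive control at 0%. A significant (2 sigma) signal drop marks a time point as decreased. The authors' rule for a hit is not shown and takes in more than the number of time points.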

molecular target: MAP2K1 (UniProt Q02750); test: number of time points (of 5) at which kinase-Nluc abundance scored as decreased, DMSO-normalised (count); higher = more persistent destabilization; details: K562; 2-18 h

Row | Structure (SMILES) | number of time points
1 | CN1C(=O)[C@@H](NC(=O)c2n[nH]c(Cc3ccccc3)n2)COc2ccccc21 (10 µM) | 0
2 | O=C1NC(=Nc2c(Cl)cccc2Cl)S/C1=C\c1ccc2nccnc2c1 (2.5 µM) | 0
3 | Cc1cccc(-c2[nH]c(C(C)(C)C)nc2-c2ccc3nccnc3c2)n1 (10 µM) | 0
4 | O=C(Nc1cccc(C(F)(F)F)c1)c1cccc2cc(Oc3cc(CO)ncn3)ccc12 (10 µM) | 0
5 | CNc1cc(Nc2cccn(-c3ccccn3)c2=O)nn2c(C(=O)N[C@@H]3C[C@@H]3F)cnc12 (2.5 µM) | 0
6 | Cc1ccn2c(C(=O)C(=O)c3ccccc3)c(-c3ccccc3)nc2c1 (10 µM) | 0
7 | COc1cc(N2CCOCC2)ccc1Nc1ncc(Cl)c(Nc2ccccc2NS(C)(=O)=O)n1 (2.5 µM) | 0
8 | O=C(NC1CCOCC1)c1ccc(-c2cc(-c3c[nH]nc3-c3ccccn3)ccn2)cc1 (10 µM) | 0
9 | O=C1NC(=O)/C(=C/c2ccc3nccc(-c4ccncc4)c3c2)S1 (10 µM) | 0
10 | Cc1ncc(NC(=O)NC2c3ccccc3-c3ccccc32)c(-c2ccccc2)n1 (10 µM) | 0
11 | CC(C)C[C@@H](C(=O)Nc1ccn(C[C@@H](O)CO)n1)N1CC(Oc2ccccc2Cl)=CC1=O [Dorzagliatin] (10 µM) | 0
12 | O=C1O[C@H]([C@@H](O)CO)C(O)=C1OP(=O)(O)O [2-Phospho-L-ascorbic acid (trisodium)] (10 µM) | 0
13 | C[C@@H]1CC(=O)c2c(ccc3c2C(=O)c2cccc(O)c2C3=O)C1 [Ochromycinone] (10 µM) | 0
14 | Cc1c(-c2ccc(C(N)=O)c3[nH]c4cc(C(C)(C)O)ccc4c23)cccc1-n1cnc2ccccc2c1=O (2.5 µM) | 0
15 | CC(C)(C)n1nc(Cc2ccccc2O)c2c(N)ncnc21 (10 µM) | 0
16 | C=CC(=O)N1C(=O)CC(c2ccc(F)cc2)Sc2ccccc21 (stereo not drawn) [GSK-3β inhibitor 3] (10 µM) | 0
17 | CCc1ccc(OCC(=O)Nc2ccc(F)c([N+](=O)[O-])c2)cc1 (10 µM) | 0
18 | CN(C)c1nc2c(Br)c(Br)c(Br)c(Br)c2[nH]1 (10 µM) | 0

3 compounds out of the list, arranged by heavy-atom count, ascending.
Row | Structure (SMILES) | number of time points
15 | CC(C)(C)n1nc(Cc2ccccc2O)c2c(N)ncnc21 (10 µM) | 0
16 | C=CC(=O)N1C(=O)CC(c2ccc(F)cc2)Sc2ccccc21 (stereo not drawn) [GSK-3β inhibitor 3] (10 µM) | 0
9 | O=C1NC(=O)/C(=C/c2ccc3nccc(-c4ccncc4)c3c2)S1 (10 µM) | 0

Remaining list, next part

Row | Structure (SMILES) | number of time points
19 | Nc1ncnc2c1c(-c1ccc(Oc3ccccc3)cc1)nn2C1CCN(CCOCCOCCOc2ccc3c(c2)CN(C2CCC(=O)NC2=O)C3=O)CC1 (stereo not given) (2.5 µM) | 0
20 | Cc1cnc(NC2CCOCC2)nc1-n1cnc(C(=O)N[C@H](CN)c2cc(F)cc(Cl)c2)c1 (10 µM) | 0
21 | FC(F)(F)c1ccc(/C=C/c2nc(COc3ccc(CCCCn4ccnn4)cc3)co2)cc1 [Mubritinib] (10 µM) | 0
22 | Cc1cc2sc(NC(=O)Cc3ccccc3)nc2cc1Cl (10 µM) | 0
23 | O=C(CNc1cccc(Cl)c1)NC1CCCN(c2ncnc3[nH]ccc23)C1 (stereo not given) (10 µM) | 0
24 | Oc1ccc(/C=C/c2cc(O)cc(F)c2)cc1 [Resveratrol analog 1] (10 µM) | 0
25 | CC/C(=N\NC(=O)c1ccnc(NCCCN2CCOCC2)c1)c1ccc(Cl)cc1O (2.5 µM) | 0
26 | O[C@@H]1CO[C@H]2[C@@H]1OC[C@H]2Oc1nc2nc(-c3ccc(-c4ccccc4)cc3)c(Cl)cc2[nH]1 (10 µM) | 0
27 | Nc1c(C(=O)NCc2ccc(C(=O)NCCCC3CCCCC3)cc2)cnn1-c1ccccc1 (2.5 µM) | 0
28 | Cc1ccc(C(=O)Nc2sc(Nc3ccccc3)nc2C(N)=O)cc1 (10 µM) | 0
29 | COc1cc(N(C)CCN(C)C)c(N)cc1Nc1nccc(-c2cn(C)c3ccccc23)n1 [Mutated EGFR-IN-1] (10 µM) | 0
30 | CCN(CC)c1cc2oc(=O)c(-c3nc4ccccc4o3)cc2cc1C (2.5 µM) | 0
31 | Cn1cc(-c2cnc3cnn(S(=O)(=O)c4cnc5ccc(-c6cnn(C)c6)cn45)c3c2)cn1 [Glumetinib] (10 µM) | 0
32 | Cc1ccc(NC(=O)c2ccnc(C(F)(F)F)c2)cc1-c1cc(OCCO)nc(N2CCOCC2)c1 (10 µM) | 0
33 | C=CC(=O)Nc1cccc(-c2cccc3cnc(Nc4ccc(N5CCN(CCO)CC5)c(F)c4F)nc23)c1 [Olafertinib] (2.5 µM) | 0
34 | CC(C)(C[C@H](N)C(=O)O)C(F)F [NV-5138 (hydrochloride)] (10 µM) | 0
35 | Cc1cc(C)nc(NS(=O)(=O)c2ccc(NC(=S)NC(=O)COc3ccc(Br)cc3Cl)cc2)n1 (2.5 µM) | 0
